Assay results from patent publication US9000189B2, “Biphenyl-substituted spirocyclic ketoenols” (Bayer CropScience AG, priority 2006, dated 2015).
Some entries share one result that the patent states for a list of compounds.

Experiments:
Type in all cases: in vivo
[1] = tested on: greenhouse red spider mite (Tetranychus urticae); assay: Example 4: Tetranychus test, OP-resistent (TETRUR spray treatment); settings: after 6 d
[2] = tested on: caterpillars of the army worm (Spodoptera frugiperda); assay: Example 2: Spodoptera frugiperda test (SPODFR spray treatment); settings: application rate 500 g/ha, after 7 d
Boophilus microplus = assay: Example 10: Boophilus microplus test (BOOPMI injection); settings: 20 μg/animal
Meloidogyne incognita = assay: Example 5: Meloidogyne test (MELON spray treatment); settings: application rate 20 ppm, after 14 d

Row | Compound | efficacy (effect in %, spider mites killed) ([1]; application rate 100 g/ha) | efficacy (effect in %, caterpillars killed) [2] | further results
1 | COC1=C(c2c(C)ccc(-c3ccc(F)cc3)c2C)C(=O)NC12CCOCC2.[Na+] [Example I-1-f-1] | ≥ 80% | ≥ 80% | 
2 | O=C1NC2(CCOCC2)C(O)=C1c1cc(-c2ccc(F)c(C(F)(F)F)c2)ccc1Cl [Example I-1-a-24] | ≥ 80% |  | 
3 | Cc1ccc(-c2ccc(F)cc2)cc1C1=C(O)C2(CCOCC2)NC1=O [Example I-1-a-1] |  | ≥ 80% | efficacy (effect in %, spider mites killed) ([1]; application rate 20 g/ha): ≥ 80%
4 | CCC(=O)OC1=C(c2c(C)ccc(-c3ccc(F)cc3)c2C)C(=O)NC12CCOCC2 [Example I-1-b-1] | ≥ 80% | ≥ 80% | 
5 | Cc1ccc(-c2ccc(F)cc2)c(C)c1C1=C(OC(=O)C(C)C)C2(CCOCC2)OC1=O [Example I-2-b-2] |  | ≥ 80% | 
6 | Cc1ccc(-c2ccc(F)cc2)cc1C1=C(O)C2(CCCC2)OC1=O [Example I-2-a-1] |  | ≥ 80% | efficacy (effect in %; 100% = none of the ticks has laid fertile eggs) (Boophilus microplus): ≥ 80%; efficacy (nematicidal activity in % by the formation of galls) (Meloidogyne incognita): ≥ 80%
7 | CCOC(=O)OC1=C(c2c(C)ccc(-c3ccc(F)cc3)c2C)C(=O)NC12CCOCC2 [Example I-1-c-1] | ≥ 80% |  | 
